From patent US10139406B2, “Alkyl quinolones as biomarkers of pseudomonas aeruginosa infection and uses thereof” (priority 2013, dated 2018)

Test: LLOQ determination by serial dilutions of AQ mix spiked into blank urine/plasma (LC-MS/MS)
Design: species or system human
Conditions: for Calculated LLOQ in plasma: spiked blank plasma; for Calculated LLOQ in urine: spiked blank urine

Structure (SMILES): CCCCCCCCCc1[nH]c2ccccc2c(=O)c1O [C9-PQS, 2-nonyl-3-hydroxy-4(1H)-quinolone]
- Calculated LLOQ in plasma: 100 pmol/L
- Calculated LLOQ in urine: 50 pmol/L

Structure (SMILES): CCCCCCCc1cc(=O)c2ccccc2[nH]1 [HHQ, 2-heptyl-4(1H)-quinolone]
- Calculated LLOQ in plasma: 10 pmol/L
- Calculated LLOQ in urine: 20 pmol/L
